No constants are given. Whether binding was seen depends on the method and setting. Binding calls can cover weak binding; strength is not graded here. Where a sequence is shown, tags or fusion partners need not be part of it.
Molecular target: DB::DLG-1 second PDZ domain (C. elegans)
Experiment: two-hybrid; DB fusions in pGBTK7 and AD fusions in pACT2 co-transformed into yeast strain Y190, X-gal filter assay

binding: binds
B1: AD::ATAD-3 aa388-595 (domain or fragment, UniProt Q20748 388-595)
chain: AIHKVFDWASKSRKGLIVFIDEADAFLQKRSKNGMSEDTRAALNAFLFRTGEQSRKFMLVVASNQPEQFDWAVNDRFDQLVEFTLPGMEERERILLQYFNEHIVTPATSGSRSQRLKLDNFDWVAKCNEVAKKTSGMSGRELSKLVIGWQASAYASETGVLTEAIVDRNTADAMVQHEHKMEWLEKEQLKARNQEVKFGTTLKRETAV
